# In PubChem BioAssay AID1508600 (Functional Genomics Laboratory (NCATS/FGL), 2020):
# Screen size: about 53,000 sequences; about 3,700 (7%) were called active.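 How the source made its calls: active means gene knockdowns whose robust z-score for IL-1 alpha signal is at least 2 or at most -2, so actives lie on both sides; inactive means the rest.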 This is one part of the list.
# Assay: Components of the Cytosolic LPS Sensing Pathway: Gene Identification via Genome-wide siRNA Screen;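 further: robust z of the log signal after scaling to non-targeting control siRNA wells of the plate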
# Details: RAW264.7 macrophages, IL-1a HTRF, actives lie on both sides, screened at 100 nM (by protocol), cells primed 5 h with Pam3CSK4 first
# Summary of the method: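 Mouse macrophage line RAW264.7 is transfected with siRNA (100 nM final), grown 48h, primed with TLR ligand Pam3CSK4 5 h and given intracellular LipidA 24 h. IL-1a in supernatant is read by HTRF and viability by luminescence.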
row,Sequence,z-score
1,GGCCUCCAAUUUUCAAGUUTT against Pnliprp1,inactive: 0.0372
2,GGGCUUAAAUCGGUUUGAATT against 2810006K23Rik,inactive: 0.263
3,CCUAUUUGGUUCCUGAUGGTT against Gm1968,inactive: 0.519
4,GGAUUAAACUGCAUAACAGTT against Ctsq,inactive: 0.361
5,GGCCGACUUGAUCAAUAACTT against Hsp90aa1,inactive: -0.164
6,GCGCACAAGCCUUACUAAATT against Zfp560,inactive: 0.0854
7,GGGAUGUGCAAUUAUAUCUTT against Muc6,inactive: 0.142
8,CCUUAAGACCGGAUUUUUUTT against Cyp4f14,inactive: 0.64
9,GCUCCCACUUCACUUCUGUTT against Olfr965,inactive: 0.51
10,CGGCUCUUCAAUAGAGCCUTT against Olfr123,inactive: -0.265
11,GGGCAACAACAAUGUCUUATT against Islr,inactive: 0.674
12,GGCUUUUGAAUACGAGUUUTT against Tmem63a,inactive: -0.483
13,GGCUUUCCCAAGCUAAGAGTT against Maff,inactive: 1.32
14,GGAUACCAAGAUUCCAAAUTT against Pik3r4,active: 2.19
15,GGAUUCUUCGCUCCAAUGATT against Pacs1,inactive: 0.73
16,GCAUGUAUAUAGGUAAAACTT against Nedd1,inactive: 1.27
17,GCCUGUUCAUCGGUUUUAUTT against Vmn1r56,inactive: -0.175
18,ACUGUUUAGACCCGGUUUCTT against Cd59b,inactive: 0.803
19,CCACAUGCCUGAGAGAUUCTT against Spp2,inactive: 1.28
20,GCGAUUCCUAGAGCUGAGCTT against Git1,active: -2.5
21,CGGUAUUGGUCCAGAAGUGTT against Dand5,inactive: 0.993
22,GCGGUAUGUACCUGUGAAATT against Exosc3,inactive: -1.13

# Part of the list above, tab-delimited:
row	Sequence	z-score
6	GCGCACAAGCCUUACUAAATT against Zfp560	inactive: 0.0854
11	GGGCAACAACAAUGUCUUATT against Islr	inactive: 0.674

# The listing continues.

row,Sequence,z-score
1,GGCCGGGCAUUCUAAAGAATT against Zfp516,inactive: 0.363
2,GGAGCUAACAAAAUAGGCUTT against Epb41l4b,inactive: 0.0549
3,GCCUGUAAAAACCUUUUCCTT against Utp15,inactive: -0.154
4,GGAGGAUAUUGGAACUGCCTT against Lrrc26,inactive: 0.312
5,GAUUUCAUUAAACAUGUCCTT against Cox8b,inactive: -0.41
6,CCUACAAUUCUAGGUUACGTT against Snx16,inactive: -1.34
7,GGUGGUCAACCCUCUGUUCTT against Rpl7a,inactive: 1.6
8,GGAAAAUGCAUUUCAGACATT against Ugcg,inactive: -0.201
9,GGCGCAACUUGAAACUUACTT against Galnt4,inactive: 0.696
10,GGAGAGAAACUUCAGAGUGTT against Spon2,inactive: -0.453
11,GGUUUCAUAAAUUCAGUGGTT against Brox,inactive: 1.05
12,GCUGAUACUUGUGUCUUCUTT against Selenop,inactive: -0.927
13,GAUCCCUGGAUUGUGGAGUTT against 2310057N15Rik,inactive: 0.26
14,GGAUGUCGGUGUGAUUUGCTT against Cd163,inactive: -0.314
15,GGAACUGGAGCAACUCAUUTT against Sgsm1,inactive: -1.11
16,GGUAGAUGGGUUUCAUAAUTT against Gpc2,inactive: 0.612
17,GGCUAAAUCUCACACUCCATT against Mzb1,active: -2.18
18,CCAGGAUUACUUACACUCGTT against Flot1,inactive: -0.583
19,GCAAGAGUCCACCUUUAGCTT against Gstk1,inactive: 0.0418
20,GGGACACUUGGACUUUAUATT against Psapl1,inactive: -0.733
21,GGAUGUGCUUAUGAACAAUTT against Rab38,inactive: 1.38
22,GGCAGCUGGCUAUUUUCACTT against Prmt9,inactive: 0.114

row,Sequence,z-score
1,GGAAAAUUCUGAGUUAAAGTT against Tapt1,inactive: -0.415
2,GGAUUCUCAAUAAAGACUUTT against Naxe,inactive: 0.24
3,UUUUCCAGUUAGUGACAACTT against Oxct2b,inactive: 0.681
4,CCAUUCUGAAUCUCUAAUCTT against Pigw,inactive: 0.134
5,GGCCAAAUAGCAUUUGCCATT against Olfr657,inactive: -0.0182
6,GCUGACAGUAGUUUGAAGATT against Defb1,inactive: 0.161
7,GCCCUAUCUGCUGAUACCUTT against Mavs,inactive: 0.473
8,GGAAUUAUAGGACUUGUUCTT against Serinc1,inactive: 0.256
9,GCAUAGAAUACAAAGAUGATT against Cnst,inactive: -0.116
10,GGACAGAGAAAGGCACAGATT against Clcn3,inactive: -0.525
11,GGAUCUAGUCCCUGAUUUGTT against Sdhb,inactive: -0.234
12,GGAAAUCUAAAGGAGACAUTT against Cdo1,inactive: -0.945
13,CGCCACGAACUCAAUUCUGTT against Irx4,inactive: -0.124
14,GGAUGGAACUAUCUGAAUUTT against Slc7a5,inactive: -0.396
15,CCCAUUGUCAUGAUAAGCUTT against Fbln1,inactive: 0.376
16,GGCGGUUAAACCACAGCGUTT against Snapin,inactive: -0.749
17,GGCAUUAUACCCAUCAGGCTT against Fam89b,inactive: 0.238
18,GGCAAGCUACAAGUUAGUCTT against Srrm3,inactive: 0.469
19,GGGUGAUAAAAUUCAGAUUTT against Gpr88,active: 2.07
20,GGAGAAGUAUGAAAUAGCATT against Rad51,inactive: -0.37
21,CCCUGAGGCAAAGAAAUGUTT against Msh3,inactive: 0.0401
22,GGCCCAAUUGUCGAUAUCCTT against 2300002M23Rik,inactive: 1.82

# Reformatted as tab-separated lines: entries from further up.
row	Sequence	z-score
2	GGAGCUAACAAAAUAGGCUTT against Epb41l4b	inactive: 0.0549
11	GGUUUCAUAAAUUCAGUGGTT against Brox	inactive: 1.05
14	GGAUGUCGGUGUGAUUUGCTT against Cd163	inactive: -0.314
18	CCAGGAUUACUUACACUCGTT against Flot1	inactive: -0.583
20	GGGACACUUGGACUUUAUATT against Psapl1	inactive: -0.733
22	GGCAGCUGGCUAUUUUCACTT against Prmt9	inactive: 0.114
1	GGAAAAUUCUGAGUUAAAGTT against Tapt1	inactive: -0.415

# Following part:

row,Sequence,z-score
1,GCGAAACUACCGACAGUGUTT against Irf2,inactive: -1.16
2,GGAAAAUCUUUACAGAGCGTT against Zfp617,inactive: 0.358
3,GGUGCCAUACCAUUUCCUATT against Olfr351,inactive: -0.0916
4,GGAAAUUCUUUGGUGAAAUTT against Galnt17,inactive: -0.273
5,GCUGAUCAAAUUGGCCUGUTT against Olfr984,inactive: -0.703
6,GGUUUUUGUUGUAAUAGGCTT against Olfr915,inactive: -0.758
7,GGACCACAACACAAAUCUGTT against Fasl,inactive: 1.49
8,GCCAACAUGAGCUCAACAATT against Foxs1,inactive: -0.611
9,CGACCUCCAGUAAUAACCUTT against Olfr310,inactive: -0.746
10,GGGUGUCUCCAUUUUUCCUTT against Wdcp,inactive: 0.534
11,GGAGUUUCAGCAGUCGUGATT against Prkrip1,inactive: -0.94
12,UCUUCUAUGGUUCAGGUGCTT against Olfr1537,inactive: 0.617
13,GGCUGAUUAGAAUACCUCCTT against Adra2b,inactive: 0.352
14,GGCUGUCAUGAUCAGUCAUTT against Vmn1r14,inactive: -1.35
15,GGUCCUUGAGCUAAGGACATT against Olfm2,inactive: -0.995
16,GGAUUUAGGCUAGACCGGGTT against Pik3r6,inactive: -0.505
17,GCUACAGAACCUGCUCUACTT against Thoc5,inactive: 0.391
18,GGAACCUCUCAAUUUUGCGTT against Pik3ip1,inactive: 0.659
19,GGAUAGAGAGAGGUAGCAUTT against Lrrc15,inactive: -0.714
20,CCUUAUGGAGCAAACAACATT against Fam221b,inactive: -0.562
21,CCUCCCUAAGGUUAUAGACTT against Acot5,inactive: -1.47
22,GCAGCUCUCAACAGUUAUATT against Rpf1,inactive: 1.11

row,Sequence,z-score
1,GGGUUGUGCAUUUUAUUGGTT against Tecrl,inactive: -0.733
2,GAUGGUGUCUAGUGAGAGCTT against Oxct2b,active: -2.01
3,GUUACAAAACAUCGGUGGGTT against Vsig2,inactive: 1.06
4,GGUUUUAAAGCAUCUUCGUTT against Pard6g,inactive: -0.284
5,CGGCAUGGUGACCUAAUGCTT against Trmt12,inactive: -1.34
6,GGUGUUGAAAGUCAUUGUGTT against Med27,inactive: -0.196
7,GGAGGAAGUUGUAUAUUUUTT against Psmd10,inactive: 0.539
8,GCUUCCUACGGUGUGUCAATT against Hnrnpu,active: -2.43
9,GCGAACAUCCCAACAACAGTT against Igfbp4,inactive: 1.12
10,GGAAGUGUGAACUUCAUCATT against Zdhhc6,active: 2.78
11,GCUACUGAGUUAUAGAAAGTT against Olfr1316,inactive: 1.04
12,GCUGAAGAUGGAGCCUUGUTT against Krt88,inactive: -1.33
13,GGAAAAACGUGGUGAACUATT against Zeb2,inactive: 0.7
14,GGAUGUUUUGGAGCCCUAGTT against Scml4,inactive: -0.125
15,GAUCCUGCAUCUUUAGUGUTT against Ascl1,inactive: -0.0831
16,GCCGAUUCAAUACUGUGACTT against Rnf149,inactive: -0.649
17,GGAAGAUGGUUUGUAGAUATT against Ddx56,inactive: -1.92
18,GGCAUUCUGAGGAGAGCAATT against Tfap2d,inactive: 0.00663
19,GGGUGAGUGUCGGAACUUUTT against Sema6b,inactive: -0.157
